Reference: the supplement of paper PMC10849652
Some of the results follow.

Amino acid sequences for entries named in this document (tags omitted). A change or cut given only in a name is not applied to a line headed by its entry.
UniProt Q9NRZ7: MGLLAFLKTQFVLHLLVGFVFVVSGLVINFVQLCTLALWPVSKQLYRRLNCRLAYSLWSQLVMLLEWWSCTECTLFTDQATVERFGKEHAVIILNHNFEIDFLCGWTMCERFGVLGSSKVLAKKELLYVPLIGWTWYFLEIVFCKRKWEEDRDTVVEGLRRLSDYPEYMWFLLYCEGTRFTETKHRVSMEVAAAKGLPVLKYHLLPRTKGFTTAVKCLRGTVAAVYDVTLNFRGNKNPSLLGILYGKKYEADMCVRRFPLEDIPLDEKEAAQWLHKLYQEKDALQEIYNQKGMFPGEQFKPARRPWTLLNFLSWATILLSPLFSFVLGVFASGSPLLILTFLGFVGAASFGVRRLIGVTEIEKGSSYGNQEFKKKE
UniProt O14734: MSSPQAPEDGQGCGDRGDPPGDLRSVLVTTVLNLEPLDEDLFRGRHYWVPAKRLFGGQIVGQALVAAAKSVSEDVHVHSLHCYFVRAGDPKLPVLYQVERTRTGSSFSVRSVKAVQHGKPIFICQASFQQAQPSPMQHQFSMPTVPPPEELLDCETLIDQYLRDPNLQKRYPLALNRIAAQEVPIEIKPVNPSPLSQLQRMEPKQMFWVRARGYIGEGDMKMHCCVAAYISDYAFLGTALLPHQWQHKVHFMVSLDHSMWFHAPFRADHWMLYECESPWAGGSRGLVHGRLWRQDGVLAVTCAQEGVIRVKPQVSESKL
UniProt P24666: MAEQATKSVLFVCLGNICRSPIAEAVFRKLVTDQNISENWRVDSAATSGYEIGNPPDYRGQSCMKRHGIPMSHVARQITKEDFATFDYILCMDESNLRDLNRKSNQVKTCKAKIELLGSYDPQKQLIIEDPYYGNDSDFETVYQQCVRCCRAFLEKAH
UniProt Q9H568: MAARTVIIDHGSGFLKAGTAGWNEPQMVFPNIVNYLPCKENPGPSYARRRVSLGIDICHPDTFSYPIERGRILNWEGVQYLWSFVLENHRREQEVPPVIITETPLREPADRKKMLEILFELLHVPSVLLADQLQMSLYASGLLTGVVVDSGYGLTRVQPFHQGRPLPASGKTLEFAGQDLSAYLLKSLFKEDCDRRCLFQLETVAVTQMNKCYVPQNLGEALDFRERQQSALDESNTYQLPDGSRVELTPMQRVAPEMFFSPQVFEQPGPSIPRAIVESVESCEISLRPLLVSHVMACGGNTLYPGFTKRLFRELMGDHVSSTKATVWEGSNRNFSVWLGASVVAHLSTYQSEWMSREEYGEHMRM
UniProt O95433, whole entry, looked up: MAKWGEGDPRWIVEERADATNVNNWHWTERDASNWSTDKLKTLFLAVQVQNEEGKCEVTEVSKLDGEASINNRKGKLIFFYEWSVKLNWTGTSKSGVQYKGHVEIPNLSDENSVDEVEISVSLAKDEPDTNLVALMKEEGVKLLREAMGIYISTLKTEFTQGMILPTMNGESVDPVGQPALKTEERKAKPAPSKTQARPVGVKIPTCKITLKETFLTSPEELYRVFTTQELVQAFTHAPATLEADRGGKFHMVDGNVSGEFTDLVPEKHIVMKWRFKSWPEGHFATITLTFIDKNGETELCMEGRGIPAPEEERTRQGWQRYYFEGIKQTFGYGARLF
UniProt Q9Y305: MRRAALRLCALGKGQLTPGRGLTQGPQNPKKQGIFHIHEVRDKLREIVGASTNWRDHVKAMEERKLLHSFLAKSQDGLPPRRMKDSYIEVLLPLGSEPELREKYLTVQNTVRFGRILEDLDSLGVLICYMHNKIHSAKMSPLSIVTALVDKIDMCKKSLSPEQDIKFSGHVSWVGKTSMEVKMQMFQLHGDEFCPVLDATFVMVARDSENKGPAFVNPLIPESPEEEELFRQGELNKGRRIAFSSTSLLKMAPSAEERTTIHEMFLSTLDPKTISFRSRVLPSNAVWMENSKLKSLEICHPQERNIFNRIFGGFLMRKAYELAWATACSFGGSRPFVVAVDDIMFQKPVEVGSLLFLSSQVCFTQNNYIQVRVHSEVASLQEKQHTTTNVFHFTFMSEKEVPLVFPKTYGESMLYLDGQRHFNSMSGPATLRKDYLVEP
UniProt Q9NX46: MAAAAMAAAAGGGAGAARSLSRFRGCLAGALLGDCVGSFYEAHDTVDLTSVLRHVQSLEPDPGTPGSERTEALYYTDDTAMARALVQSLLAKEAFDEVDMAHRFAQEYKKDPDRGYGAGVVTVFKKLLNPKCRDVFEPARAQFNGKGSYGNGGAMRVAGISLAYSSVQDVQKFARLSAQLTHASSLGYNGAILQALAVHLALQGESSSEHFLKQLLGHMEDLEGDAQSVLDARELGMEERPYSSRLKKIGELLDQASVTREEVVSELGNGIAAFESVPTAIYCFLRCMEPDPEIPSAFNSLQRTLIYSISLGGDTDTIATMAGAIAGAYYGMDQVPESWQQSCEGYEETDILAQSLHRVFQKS
UniProt O60488: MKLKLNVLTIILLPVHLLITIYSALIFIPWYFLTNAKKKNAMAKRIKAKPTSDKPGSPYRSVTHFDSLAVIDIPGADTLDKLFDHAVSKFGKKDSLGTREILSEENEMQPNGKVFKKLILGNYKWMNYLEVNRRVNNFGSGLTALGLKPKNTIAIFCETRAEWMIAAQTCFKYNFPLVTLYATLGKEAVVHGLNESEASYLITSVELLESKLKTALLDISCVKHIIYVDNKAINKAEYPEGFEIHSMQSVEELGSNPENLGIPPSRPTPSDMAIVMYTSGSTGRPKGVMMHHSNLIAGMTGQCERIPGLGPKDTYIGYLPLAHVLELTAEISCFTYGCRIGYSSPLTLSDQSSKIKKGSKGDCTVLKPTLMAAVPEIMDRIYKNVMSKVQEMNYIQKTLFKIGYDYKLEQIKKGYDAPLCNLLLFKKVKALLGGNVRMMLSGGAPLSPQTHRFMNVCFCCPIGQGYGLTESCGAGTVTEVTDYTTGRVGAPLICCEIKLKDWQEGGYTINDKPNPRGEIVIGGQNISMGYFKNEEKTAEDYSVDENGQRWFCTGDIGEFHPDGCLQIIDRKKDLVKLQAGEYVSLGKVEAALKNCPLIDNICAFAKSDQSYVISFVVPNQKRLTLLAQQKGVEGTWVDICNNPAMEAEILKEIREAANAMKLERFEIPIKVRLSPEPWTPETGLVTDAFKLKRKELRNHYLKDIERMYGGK
UniProt P35611: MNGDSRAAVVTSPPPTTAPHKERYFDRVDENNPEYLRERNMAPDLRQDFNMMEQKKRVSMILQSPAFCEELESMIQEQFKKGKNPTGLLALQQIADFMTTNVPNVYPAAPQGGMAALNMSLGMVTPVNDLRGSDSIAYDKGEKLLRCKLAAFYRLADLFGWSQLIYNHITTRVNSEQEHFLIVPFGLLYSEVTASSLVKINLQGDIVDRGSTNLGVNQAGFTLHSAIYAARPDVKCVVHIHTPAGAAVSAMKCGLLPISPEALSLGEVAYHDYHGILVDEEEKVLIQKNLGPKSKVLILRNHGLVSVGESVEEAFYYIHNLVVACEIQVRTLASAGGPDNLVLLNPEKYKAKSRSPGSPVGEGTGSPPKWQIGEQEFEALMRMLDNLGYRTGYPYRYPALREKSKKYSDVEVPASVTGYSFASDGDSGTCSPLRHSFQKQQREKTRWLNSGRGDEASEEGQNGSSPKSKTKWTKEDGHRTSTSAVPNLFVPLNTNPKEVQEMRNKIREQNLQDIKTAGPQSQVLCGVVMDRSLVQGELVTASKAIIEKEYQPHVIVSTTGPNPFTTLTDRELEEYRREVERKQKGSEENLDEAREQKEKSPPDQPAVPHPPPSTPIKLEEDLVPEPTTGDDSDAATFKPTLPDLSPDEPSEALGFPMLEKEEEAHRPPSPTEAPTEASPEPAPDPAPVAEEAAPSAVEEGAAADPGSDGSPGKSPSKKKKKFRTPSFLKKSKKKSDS
UniProt P23526: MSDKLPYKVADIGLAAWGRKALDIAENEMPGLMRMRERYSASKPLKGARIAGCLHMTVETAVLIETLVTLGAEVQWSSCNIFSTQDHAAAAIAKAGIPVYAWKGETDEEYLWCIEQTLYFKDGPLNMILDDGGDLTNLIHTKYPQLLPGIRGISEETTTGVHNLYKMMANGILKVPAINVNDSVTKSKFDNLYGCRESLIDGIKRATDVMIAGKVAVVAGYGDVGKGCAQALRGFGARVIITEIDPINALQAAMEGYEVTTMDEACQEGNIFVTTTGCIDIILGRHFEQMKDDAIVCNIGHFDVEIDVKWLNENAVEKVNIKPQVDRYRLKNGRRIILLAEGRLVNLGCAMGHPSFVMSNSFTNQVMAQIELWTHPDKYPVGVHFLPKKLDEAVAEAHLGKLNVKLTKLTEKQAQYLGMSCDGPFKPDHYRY
UniProt Q12904: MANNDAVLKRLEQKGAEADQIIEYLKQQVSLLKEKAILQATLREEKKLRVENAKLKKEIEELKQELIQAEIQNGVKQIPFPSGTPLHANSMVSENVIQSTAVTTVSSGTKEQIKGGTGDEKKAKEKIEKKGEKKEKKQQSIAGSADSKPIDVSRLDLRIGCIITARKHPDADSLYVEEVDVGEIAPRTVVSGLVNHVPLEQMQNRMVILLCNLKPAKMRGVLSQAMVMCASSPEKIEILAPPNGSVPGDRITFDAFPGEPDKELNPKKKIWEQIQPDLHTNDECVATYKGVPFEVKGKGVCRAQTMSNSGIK
UniProt Q7Z6V5: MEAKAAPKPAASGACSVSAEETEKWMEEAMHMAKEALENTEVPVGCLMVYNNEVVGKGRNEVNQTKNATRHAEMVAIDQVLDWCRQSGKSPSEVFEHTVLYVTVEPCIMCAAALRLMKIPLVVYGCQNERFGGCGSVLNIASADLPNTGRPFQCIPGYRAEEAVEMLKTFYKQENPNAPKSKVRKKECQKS
UniProt Q02952: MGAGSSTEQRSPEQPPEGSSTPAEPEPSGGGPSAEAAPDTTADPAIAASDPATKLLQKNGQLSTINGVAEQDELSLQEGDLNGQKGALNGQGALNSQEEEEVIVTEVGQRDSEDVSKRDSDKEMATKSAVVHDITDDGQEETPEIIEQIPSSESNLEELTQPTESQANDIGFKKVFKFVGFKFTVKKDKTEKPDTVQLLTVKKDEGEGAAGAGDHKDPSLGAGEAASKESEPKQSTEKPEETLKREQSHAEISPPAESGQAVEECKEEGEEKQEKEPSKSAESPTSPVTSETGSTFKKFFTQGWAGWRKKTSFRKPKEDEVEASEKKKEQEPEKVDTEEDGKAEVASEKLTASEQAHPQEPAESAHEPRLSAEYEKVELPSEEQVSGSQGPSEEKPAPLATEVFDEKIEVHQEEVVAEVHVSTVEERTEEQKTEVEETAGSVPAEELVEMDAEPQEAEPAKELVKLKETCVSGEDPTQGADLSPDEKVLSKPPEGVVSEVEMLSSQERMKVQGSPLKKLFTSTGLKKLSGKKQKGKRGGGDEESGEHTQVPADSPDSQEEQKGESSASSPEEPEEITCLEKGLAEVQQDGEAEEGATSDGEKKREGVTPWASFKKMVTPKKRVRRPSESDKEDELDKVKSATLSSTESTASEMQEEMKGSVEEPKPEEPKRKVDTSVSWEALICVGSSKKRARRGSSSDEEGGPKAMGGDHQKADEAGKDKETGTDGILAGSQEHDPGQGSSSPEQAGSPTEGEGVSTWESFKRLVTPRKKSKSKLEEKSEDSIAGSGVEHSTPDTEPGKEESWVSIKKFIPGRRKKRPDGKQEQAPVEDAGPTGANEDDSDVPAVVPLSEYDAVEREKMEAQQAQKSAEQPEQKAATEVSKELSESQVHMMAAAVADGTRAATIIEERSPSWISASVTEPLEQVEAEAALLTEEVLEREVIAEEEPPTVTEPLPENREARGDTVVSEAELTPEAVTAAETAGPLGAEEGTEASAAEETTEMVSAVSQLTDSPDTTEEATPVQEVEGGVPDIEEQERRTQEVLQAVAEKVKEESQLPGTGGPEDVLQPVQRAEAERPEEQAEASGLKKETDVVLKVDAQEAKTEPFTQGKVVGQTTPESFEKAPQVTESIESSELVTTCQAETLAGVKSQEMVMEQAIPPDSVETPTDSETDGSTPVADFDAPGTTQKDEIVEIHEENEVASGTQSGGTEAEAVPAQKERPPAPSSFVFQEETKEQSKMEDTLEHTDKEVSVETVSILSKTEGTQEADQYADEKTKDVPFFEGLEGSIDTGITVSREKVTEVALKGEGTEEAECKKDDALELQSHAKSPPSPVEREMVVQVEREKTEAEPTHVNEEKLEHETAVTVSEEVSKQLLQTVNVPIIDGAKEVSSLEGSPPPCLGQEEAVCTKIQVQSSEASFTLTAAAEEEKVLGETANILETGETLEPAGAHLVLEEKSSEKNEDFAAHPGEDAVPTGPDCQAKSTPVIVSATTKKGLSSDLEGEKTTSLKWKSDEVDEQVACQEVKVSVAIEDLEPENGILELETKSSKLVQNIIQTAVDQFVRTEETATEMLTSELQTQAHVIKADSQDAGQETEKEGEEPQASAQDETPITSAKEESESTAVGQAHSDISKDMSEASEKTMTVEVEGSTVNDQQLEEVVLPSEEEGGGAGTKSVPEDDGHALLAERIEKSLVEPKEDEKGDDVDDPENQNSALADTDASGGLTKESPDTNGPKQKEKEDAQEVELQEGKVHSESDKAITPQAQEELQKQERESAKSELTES

Key:
Experiment in all cases: log2 fold change, soluble protein after heating vs DMSO (PISA); higher = thermal stabilisation; K562 lysate, 10 uM; active = over 0.2 and 3.5 SD of the protein, either way, in both replicates (recomputed)
lapatinib = compound: CS(=O)(=O)CCNCc1ccc(-c2ccc3ncnc(Nc4ccc(OCc5cccc(F)c5)c(Cl)c4)c3c2)o1 [lapatinib]
Method in brief: (§1)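 K562 pellets were dounce-homogenised in PBS pH 7.4 with 1 mM MgCl2, and the crude extract at 1 mg/mL protein was treated with 10 μM compound for 30 min. Aliquots were heated for 3 min across 48°C-58°C, pooled, and brought to 0.5% NP-40 at 4°C; soluble protein was the supernatant after 21,000xg for 90 min. Soluble protein was quantified by TMTpro 16plex LC-MS/MS with channel sums equalised, and reported as log2 fold change in thermal stability against DMSO controls, with values from duplicates.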

pictilisib = compound: CS(=O)(=O)N1CCN(Cc2cc3nc(-c4cccc5[nH]ncc45)nc(N4CCOCC4)c3s2)CC1 [pictilisib]
Method in brief: as §1

crizotinib = compound: C[C@@H](Oc1cc(-c2cnn(C3CCNCC3)c2)cnc1N)c1c(Cl)ccc(F)c1Cl [crizotinib]
Method in brief: as §1

[1] = compound: C[C@H](C1=CC=C(C=C1)C(=O)NC2=C3C=CNC3=NC=C2)N
Method in brief: as §1

duvelisib = compound: C[C@H](Nc1ncnc2nc[nH]c12)c1cc2cccc(Cl)c2c(=O)n1-c1ccccc1 [duvelisib]
Method in brief: as §1

gandotinib = compound: Cc1cc(Nc2cc(CN3CCOCC3)c3nc(C)c(Cc4ccc(Cl)cc4F)n3n2)n[nH]1 [gandotinib]
Method in brief: as §1

tozasertib = compound: Cc1cc(Nc2cc(N3CCN(C)CC3)nc(Sc3ccc(NC(=O)C4CC4)cc3)n2)n[nH]1 [tozasertib]
Method in brief: as §1

doramapimod = compound: Cc1ccc(-n2nc(C(C)(C)C)cc2NC(=O)Nc2ccc(OCCN3CCOCC3)c3ccccc23)cc1 [doramapimod]
Method in brief: as §1

bafetinib = compound: Cc1ccc(NC(=O)c2ccc(CN3CC[C@H](N(C)C)C3)c(C(F)(F)F)c2)cc1Nc1nccc(-c2cncnc2)n1 [bafetinib]
Method in brief: as §1

[2] = compound: Cc1cccc(CC(=O)N2CCc3c2ccc(-c2cn(C)c4ncnc(N)c24)c3F)n1
Method in brief: as §1

nilotinib = compound: Cc1cn(-c2cc(NC(=O)c3ccc(C)c(Nc4nccc(-c5cccnc5)n4)c3)cc(C(F)(F)F)c2)cn1 [nilotinib]
Method in brief: as §1

[3] = compound: Cc1nc(Nc2n[nH]c3c2CN(C(=O)N[C@H](CN(C)C)c2ccccc2)C3(C)C)c2sccc2n1
Method in brief: as §1

dasatinib = compound: Cc1nc(Nc2ncc(C(=O)Nc3c(C)cccc3Cl)s2)cc(N2CCN(CCO)CC2)n1 [dasatinib]
Method in brief: as §1

[4] = compound: Cc1ncc(-c2ccnc(Nc3ccc(S(C)(=O)=O)cc3)n2)n1C(C)C
Method in brief: as §1

[5] = compound: Cn1cc(-c2ccc3c(c2)CCN3C(=O)Cc2cccc(C(F)(F)F)c2)c2c(N)ncnc21
Method in brief: as §1

quisinostat = compound: Cn1cc(CNCC2CCN(c3ncc(C(=O)NO)cn3)CC2)c2ccccc21 [quisinostat]
Method in brief: as §1

tipifarnib = compound: Cn1cncc1[C@@](N)(c1ccc(Cl)cc1)c1ccc2c(c1)c(-c1cccc(Cl)c1)cc(=O)n2C [tipifarnib]
Method in brief: as §1

[6] = compound: NC(=O)Nc1cc(-c2cccc(F)c2)sc1C(=O)N[C@H]1CCCNC1
Method in brief: as §1

[7] = compound: NC(=O)c1cnc(N[C@@H]2CCCC[C@@H]2N)nc1Nc1cccc(-n2nccn2)c1
Method in brief: as §1

[8] = compound: NC1(c2ccc(-c3nc4ccn5c(=O)[nH]nc5c4cc3-c3ccccc3)cc2)CCC1
Method in brief: as §1

Measured: log2 fold change

AGPAT3 isoform 3 (UniProt Q9NRZ7)
inactive: lapatinib -0.045 | pictilisib 0.013 | crizotinib -0.063 | [1] -0.085 | duvelisib -0.033 | gandotinib 0.075 | tozasertib 0.019 | doramapimod 0.009 | bafetinib -0.102 | [2] 0.063 | nilotinib -0.005 | [3] -0.054 | dasatinib -0.04 | [4] -0.043 | [5] 0.011 | quisinostat -0.073 | tipifarnib -0.021 | [6] 0.017 | [7] 0.012 | [8] -0.042

ACOT8 (UniProt O14734)
inactive: lapatinib 0.033 | pictilisib -0.049 | crizotinib -0.058 | [1] -0.034 | duvelisib -0.041 | gandotinib 0.021 | tozasertib 0.023 | doramapimod 0.038 | bafetinib -0.014 | [2] 0.089 | nilotinib 0.008 | [3] -0.087 | dasatinib 0.1 | [4] 0.014 | [5] 0.019 | quisinostat -0.051 | tipifarnib 0.038 | [6] 0.015 | [7] 0.028 | [8] -0.03

ACP1 (UniProt P24666)
inactive: lapatinib 0.049 | pictilisib -0.038 | crizotinib 0.111 | [1] -0.061 | duvelisib 0.075 | gandotinib -0.142 | tozasertib -0.013 | doramapimod -0.073 | bafetinib 0.016 | [2] -0.027 | nilotinib -0.015 | [3] 0.055 | dasatinib 0.013 | [4] 0.031 | [5] -0.028 | quisinostat 0.067 | tipifarnib 0.003 | [6] -0.009 | [7] -0.003 | [8] -0.018

ACTA1 (UniProt P68133)
inactive: lapatinib -0.012 | pictilisib 0.002 | crizotinib 0 | [1] -0.002 | duvelisib -0.024 | gandotinib -0.028 | tozasertib 0.021 | doramapimod -0.008 | bafetinib -0.007 | [2] -0.032 | nilotinib -0.013 | [3] -0.02 | dasatinib -0.018 | [4] -0.009 | [5] -0.029 | quisinostat -0.035 | tipifarnib 0.016 | [6] 0.008 | [7] 0.003 | [8] -0.03

ACTL8 (UniProt Q9H568)
inactive: lapatinib -0.008 | pictilisib 0.134 | crizotinib 0.066 | [1] -0.061 | duvelisib 0.082 | gandotinib -0.04 | tozasertib -0.005 | doramapimod -0.034 | bafetinib 0.022 | [2] 0.07 | nilotinib -0.108 | [3] -0.005 | dasatinib 0.042 | [4] -0.073 | [5] -0.054 | quisinostat -0.047 | tipifarnib 0.085 | [6] 0.005 | [7] -0.056 | [8] 0.005

AHSA1 (UniProt O95433)
inactive: lapatinib 0.006 | pictilisib 0.027 | crizotinib 0.011 | [1] 0.008 | duvelisib 0.014 | gandotinib -0.018 | tozasertib -0.039 | doramapimod -0.014 | bafetinib 0.04 | [2] -0.039 | nilotinib 0.006 | [3] -0.026 | dasatinib 0.012 | [4] 0.01 | [5] -0.021 | quisinostat -0.006 | tipifarnib 0.001 | [6] 0.009 | [7] 0.01 | [8] -0.03

ADNP (UniProt Q9H2P0)
inactive: lapatinib -0.029 | pictilisib 0.015 | crizotinib -0.018 | [1] -0.112 | duvelisib 0.016 | gandotinib 0.096 | tozasertib 0.028 | doramapimod -0.005 | bafetinib -0.03 | [2] 0.132 | nilotinib -0.004 | [3] 0.033 | dasatinib -0.051 | [4] 0.03 | [5] -0.009 | quisinostat -0.028 | tipifarnib -0.009 | [6] 0.048 | [7] 0.007 | [8] 0.009

ACOT9 isoform 4 (UniProt Q9Y305)
inactive: lapatinib -0.007 | pictilisib -0.081 | crizotinib -0.032 | [1] 0.105 | duvelisib -0.003 | gandotinib -0.051 | tozasertib -0.036 | doramapimod 0.028 | bafetinib -0.023 | [2] -0.082 | nilotinib -0.011 | [3] -0.051 | dasatinib -0.007 | [4] -0.004 | [5] 0.016 | quisinostat 0.019 | tipifarnib 0.006 | [6] 0.036 | [7] 0.012 | [8] -0.099

ADPRHL2 (UniProt Q9NX46)
inactive: lapatinib 0.008 | pictilisib -0.033 | crizotinib 0.031 | [1] -0.026 | duvelisib -0.034 | gandotinib -0.079 | tozasertib 0.027 | doramapimod -0.048 | bafetinib -0.012 | [2] 0.059 | nilotinib -0.031 | [3] 0.023 | dasatinib -0.031 | [4] 0.037 | [5] 0.011 | quisinostat 0.124 | tipifarnib -0.005 | [6] -0.005 | [7] 0.001 | [8] 0.006

ACSL4 (UniProt O60488)
inactive: lapatinib 0.008 | pictilisib 0.028 | crizotinib -0.042 | [1] -0.016 | duvelisib 0.026 | gandotinib -0.065 | tozasertib 0.002 | doramapimod 0.025 | bafetinib -0.093 | [2] -0.003 | nilotinib -0.011 | [3] 0.008 | dasatinib 0.004 | [4] 0.018 | [5] 0.02 | quisinostat -0.018 | tipifarnib -0.051 | [6] 0.029 | [7] -0.032 | [8] -0.074

ADD1 isoform 3 (UniProt P35611)
inactive: lapatinib -0.017 | pictilisib 0.003 | crizotinib 0.014 | [1] -0.011 | duvelisib 0.014 | gandotinib -0.001 | tozasertib -0.002 | doramapimod 0.002 | bafetinib 0.002 | [2] -0.019 | nilotinib 0.027 | [3] -0.005 | dasatinib 0.007 | [4] -0.017 | [5] -0.012 | quisinostat -0.016 | tipifarnib 0.019 | [6] 0.007 | [7] -0.015 | [8] 0.011

AHCY (UniProt P23526)
inactive: lapatinib -0.003 | pictilisib -0.011 | crizotinib 0.037 | [1] -0.037 | duvelisib -0.004 | gandotinib 0.016 | tozasertib -0.01 | doramapimod 0.011 | bafetinib 0.051 | [2] 0.008 | nilotinib -0.004 | [3] -0.015 | dasatinib 0.005 | [4] -0.041 | [5] 0.015 | quisinostat 0.045 | tipifarnib 0.011 | [6] -0.024 | [7] -0.017 | [8] -0.004

Quoted from the entries so far (four entries):
ACTL8 (UniProt Q9H568)
inactive: lapatinib -0.008 | pictilisib 0.134 | crizotinib 0.066 | [1] -0.061 | duvelisib 0.082 | gandotinib -0.04 | tozasertib -0.005 | doramapimod -0.034 | bafetinib 0.022 | [2] 0.07 | nilotinib -0.108 | [3] -0.005 | dasatinib 0.042 | [4] -0.073 | [5] -0.054 | quisinostat -0.047 | tipifarnib 0.085 | [6] 0.005 | [7] -0.056 | [8] 0.005

AHSA1 (UniProt O95433)
inactive: lapatinib 0.006 | pictilisib 0.027 | crizotinib 0.011 | [1] 0.008 | duvelisib 0.014 | gandotinib -0.018 | tozasertib -0.039 | doramapimod -0.014 | bafetinib 0.04 | [2] -0.039 | nilotinib 0.006 | [3] -0.026 | dasatinib 0.012 | [4] 0.01 | [5] -0.021 | quisinostat -0.006 | tipifarnib 0.001 | [6] 0.009 | [7] 0.01 | [8] -0.03

ADNP (UniProt Q9H2P0)
inactive: lapatinib -0.029 | pictilisib 0.015 | crizotinib -0.018 | [1] -0.112 | duvelisib 0.016 | gandotinib 0.096 | tozasertib 0.028 | doramapimod -0.005 | bafetinib -0.03 | [2] 0.132 | nilotinib -0.004 | [3] 0.033 | dasatinib -0.051 | [4] 0.03 | [5] -0.009 | quisinostat -0.028 | tipifarnib -0.009 | [6] 0.048 | [7] 0.007 | [8] 0.009

ACOT9 isoform 4 (UniProt Q9Y305)
inactive: lapatinib -0.007 | pictilisib -0.081 | crizotinib -0.032 | [1] 0.105 | duvelisib -0.003 | gandotinib -0.051 | tozasertib -0.036 | doramapimod 0.028 | bafetinib -0.023 | [2] -0.082 | nilotinib -0.011 | [3] -0.051 | dasatinib -0.007 | [4] -0.004 | [5] 0.016 | quisinostat 0.019 | tipifarnib 0.006 | [6] 0.036 | [7] 0.012 | [8] -0.099

Additional results.

AIMP1 isoform 2 (UniProt Q12904)
inactive: lapatinib -0.019 | pictilisib -0.004 | crizotinib -0.05 | [1] 0.023 | duvelisib 0.007 | gandotinib -0.085 | tozasertib -0.008 | doramapimod -0.015 | bafetinib -0.041 | [2] -0.012 | nilotinib -0.013 | [3] -0.016 | dasatinib -0.076 | [4] 0.019 | [5] 0.023 | quisinostat 0.01 | tipifarnib 0.013 | [6] 0.044 | [7] -0.011 | [8] 0.001

ACY1 (UniProt Q03154)
inactive: lapatinib 0.004 | pictilisib -0.03 | crizotinib 0.049 | [1] -0.015 | duvelisib 0.04 | gandotinib 0.016 | tozasertib 0.032 | doramapimod 0.004 | bafetinib 0.001 | [2] -0.012 | nilotinib 0.022 | [3] 0.001 | dasatinib 0.013 | [4] -0.011 | [5] 0.012 | quisinostat 0.049 | tipifarnib 0.025 | [6] -0.006 | [7] -0.007 | [8] 0.037

ADAT2 (UniProt Q7Z6V5)
inactive: lapatinib 0.012 | pictilisib 0.058 | crizotinib 0.008 | [1] -0.036 | duvelisib 0.002 | gandotinib 0.019 | tozasertib 0.018 | doramapimod 0.001 | bafetinib 0.028 | [2] 0.012 | nilotinib 0.013 | [3] -0.044 | dasatinib 0.038 | [4] -0.043 | [5] 0.028 | quisinostat 0.025 | tipifarnib -0.068 | [6] 0 | [7] 0 | [8] 0.001

AKAP12 (UniProt Q02952)
inactive: lapatinib 0.087 | pictilisib -0.063 | crizotinib -0.019 | [1] -0.304 | duvelisib 0.009 | gandotinib 0.073 | tozasertib 0.218 | doramapimod 0 | bafetinib -0.271 | [2] 0.234 | nilotinib -0.121 | [3] -0.063 | dasatinib 0.021 | [4] 0.155 | [5] -0.035 | quisinostat 0.025 | tipifarnib -0.042 | [6] -0.052 | [7] 0.032 | [8] -0.116
